Measured values: PubChem BioAssay AID256 (DTP/NCI, 2004)
The list shows only some results of the screen, not a fair sample: it gathers tests that were run many times, whatever their T/C, doses with no T/C, and many T/C values between a quarter and a half above the control. Further doses and runs are listed elsewhere. T/C gives the treated animals as a percentage of the vehicle group. Some doses have a count of surviving animals in place of a T/C: the source files T/C as zero there, which appears to mark a toxic dose or a test without result, not a measured value. Some doses without a T/C left all or most animals alive at the check, yet need not have been tolerated: survival well below the control is almost never listed, so the zero probably covers shortened survival too. Survivors were counted at the toxicity check, usually on the fifth day, unless a day is given; later deaths do not show. Schedule codes are those of the source, read here as Q, the interval in days (D) or hours (H), X, the number of doses. Some doses were run more than once; the values are given in rising order. For survival time, the PubChem record calls one and a half times the control and up active, and a quarter to a half above the control has no call in these data; cut-offs in other NCI protocols can differ.

Tested on: CD2F1 mice, L1210 leukemia ip, survival T/C
Assay: NCI In Vivo Anticancer Drug Screen. Data for tumor model L1210 Leukemia (intraperitoneal) in CD2F1 (CDF1) mice
Conditions: higher T/C = longer survival
Outline: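 Antitumor effect is scored in animals hosting a serially transplanted tumor. Values compare compound-dosed animals against vehicle-only controls as a simple quotient.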

[1] = T/C endpoint: mean survival time, dose: 200.0 mg/kg/injection, schedule: Q01DX009 (ip), vehicle: saline
[2] = T/C endpoint: mean survival time, dose: 400.0 mg/kg/injection, schedule: Q04DX003 (ip), vehicle: saline with Tween-80
[3] = T/C endpoint: mean survival time, dose: 100.0 mg/kg/injection, schedule: Q01DX009 (ip), vehicle: saline with Tween-80
[4] = T/C endpoint: mean survival time, dose: 300.0 mg/kg/injection, schedule: Q01DX001 (ip), vehicle: saline
[5] = T/C endpoint: mean survival time, dose: 100.0 mg/kg/injection, schedule: Q01DX001 (ip), vehicle: saline with Tween-80
[6] = T/C endpoint: mean survival time, dose: 200.0 mg/kg/injection, schedule: Q01DX001 (ip), vehicle: saline with Tween-80
[7] = T/C endpoint: mean survival time, dose: 400.0 mg/kg/injection, schedule: Q01DX001 (ip), vehicle: saline with Tween-80
[8] = T/C endpoint: mean survival time, dose: 200.0 mg/kg/injection, schedule: Q04DX003 (ip), vehicle: saline with Tween-80
[9] = T/C endpoint: mean survival time, dose: 200.0 mg/kg/injection, schedule: Q01DX009 (ip), vehicle: saline with Tween-80

Question: Which survivor count (T/C endpoint: mean survival time, dose: 50.0 mg/kg/injection, schedule: Q01DX009 (ip), vehicle: saline) does the source give for `O=C(Nc1ccc(Cl)c(Cl)c1)Nc1c(Oc2ccc(Cl)c(Cl)c2)ccc(Cl)c1S(=O)(=O)O` here?
Answer: The survivor count was 6 of 6.

Question: And the survivor count (T/C endpoint: mean survival time, dose: 100.0 mg/kg/injection, schedule: Q01DX009 (ip), vehicle: saline)?
Answer: The survivor count was 6 of 6.

Question: What about the survivor count [1] of the same compound?
Answer: Its survivor count is 4 of 6.

Question: And the survivor count [2]?
Answer: The survivor count was 0 of 6.

Question: How did the survivor count [3] turn out when `COCC1OC(OC(=O)c2ccccc2)C(OC(=O)c2ccccc2)C(OC(=O)c2ccccc2)C1OC` (stereo unspecified) was run?
Answer: The survivor count was 3 of 3.

Question: How did the survivor count (T/C endpoint: mean survival time, dose: 400.0 mg/kg/injection, schedule: Q01DX009 (ip), vehicle: water) turn out when `CCOC(=O)C(C(=O)COC)C(=O)OCC` was run?
Answer: Its survivor count is 3 of 6.

Question: Which results are given for `OCC1OC(n2ccc3c(NO)ncnc32)C(O)C1O` (stereo unspecified)?
Answer: survivor count (T/C endpoint: mean survival time, dose: 20.0 mg/kg/injection, schedule: Q01DX001 (ip), vehicle: saline): 1 of 6; survivor count (T/C endpoint: mean survival time, dose: 40.0 mg/kg/injection, schedule: Q01DX001 (ip), vehicle: saline): 0 of 6; survivor count (T/C endpoint: mean survival time, dose: 75.0 mg/kg/injection, schedule: Q01DX001 (ip), vehicle: saline): 0 of 6; survivor count (T/C endpoint: mean survival time, dose: 80.0 mg/kg/injection, schedule: Q01DX001 (ip), vehicle: saline): 0 of 6; survivor count (T/C endpoint: mean survival time, dose: 150.0 mg/kg/injection, schedule: Q01DX001 (ip), vehicle: saline): 0 of 6; survivor count [4]: 0 of 6

Question: `O=C(CC(Cl)(C(F)(F)F)C(F)(F)F)c1cccc([N+](=O)[O-])c1` was tested. Which survivor count [5] did it give?
Answer: The survivor count was 0 of 6.

Question: And the survivor count [6]?
Answer: Its survivor count is 1 of 6.

Question: And the survivor count [7]?
Answer: The survivor count was 2 of 6.

Question: How did the survivor count (T/C endpoint: median survival time, dose: 400.0 mg/kg/injection, schedule: Q01DX005 (ip), vehicle: Klucel (hydroxypropylcellulose) (HPC)) turn out when `CCOC1NC(=O)Oc2ccccc21` (stereo unspecified) was run?
Answer: The survivor count was 0 of 6.

Question: What about the survivor count (T/C endpoint: median survival time, dose: 800.0 mg/kg/injection, schedule: Q01DX005 (ip), vehicle: Klucel (hydroxypropylcellulose) (HPC)) of the same compound?
Answer: The survivor count was 0 of 6.

Question: Which survivor count [1] does the source give for `CC(=O)NC(CSC(c1ccccc1)(c1ccccc1)c1ccccc1)C(=O)O` (stereo unspecified) here?
Answer: Its survivor count is 1 of 6.

Question: What about the survivor count (T/C endpoint: mean survival time, dose: 400.0 mg/kg/injection, schedule: Q01DX009 (ip), vehicle: saline) of the same compound?
Answer: Its survivor count is 0 of 6.

Question: For `C[n+]1cccc(NC(=O)COc2ccc(Cl)c(Cl)c2)c1`, which survivor count [8] is on record?
Answer: The survivor count was 3 of 6.

Question: What about the survivor count [2] of the same compound?
Answer: Its survivor count is 0 of 6.

Question: Which survivor count [4] does the source give for `C[n+]1cc(Br)c2ccccc2c1` here?
Answer: Its survivor count is 2 of 6.

Question: `CN(C)N=Nc1ccc(C(N)=O)cc1` was tested. Which T/C (T/C endpoint: mean survival time, dose: 37.5 mg/kg/injection, schedule: Q01DX009 (ip), vehicle: Klucel (hydroxypropylcellulose) (HPC)) did it give?
Answer: Its T/C is 136 % of control.

Question: What about the T/C (T/C endpoint: mean survival time, dose: 75.0 mg/kg/injection, schedule: Q01DX009 (ip), vehicle: Klucel (hydroxypropylcellulose) (HPC)) of the same compound?
Answer: Its T/C is 142 % of control.

Question: And the survivor count (T/C endpoint: mean survival time, dose: 300.0 mg/kg/injection, schedule: Q01DX009 (ip), vehicle: Klucel (hydroxypropylcellulose) (HPC))?
Answer: The survivor count was 4 of 6.

Question: And the T/C (T/C endpoint: median survival time, dose: 50.0 mg/kg/injection, schedule: Q01DX005 (ip), vehicle: saline with Tween-80)?
Answer: Its T/C is 128 % of control.

Question: And the T/C (T/C endpoint: median survival time, dose: 60.0 mg/kg/injection, schedule: Q01DX005 (ip), vehicle: saline with Tween-80)?
Answer: The T/C was 134 % of control.

Question: What about the T/C (T/C endpoint: median survival time, dose: 60.0 mg/kg/injection, schedule: Q01DX009 (ip), vehicle: saline with Tween-80) of the same compound?
Answer: Its T/C is 138 % of control.

Question: What about the T/C (T/C endpoint: median survival time, dose: 100.0 mg/kg/injection, schedule: Q01DX005 (ip), vehicle: saline with Tween-80) of the same compound?
Answer: Its T/C is 125, 138, 141 % of control.

Question: And the T/C (T/C endpoint: median survival time, dose: 167.0 mg/kg/injection, schedule: Q01DX005 (ip), vehicle: saline with Tween-80)?
Answer: The T/C was 132 % of control.

Question: What about the survivor count (T/C endpoint: median survival time, dose: 200.0 mg/kg/injection, schedule: Q01DX005 (ip), vehicle: saline with Tween-80) of the same compound?
Answer: Its survivor count is 4 of 6.

Question: What about the T/C (T/C endpoint: median survival time, dose: 278.0 mg/kg/injection, schedule: Q01DX005 (ip), vehicle: saline with Tween-80) of the same compound?
Answer: Its T/C is 134 % of control.

Question: For `COP1(=O)OCC(C(C)(C)C)CO1` (stereo unspecified), which survivor count (T/C endpoint: mean survival time, dose: 50.0 mg/kg/injection, schedule: Q04DX002 (ip), vehicle: saline) is on record?
Answer: The survivor count was 0 of 3.

Question: And the survivor count (T/C endpoint: mean survival time, dose: 100.0 mg/kg/injection, schedule: Q04DX002 (ip), vehicle: saline)?
Answer: The survivor count was 3 of 3.

Question: What about the survivor count (T/C endpoint: mean survival time, dose: 200.0 mg/kg/injection, schedule: Q04DX002 (ip), vehicle: saline) of the same compound?
Answer: The survivor count was 3 of 3.

Question: What about the survivor count (T/C endpoint: mean survival time, dose: 400.0 mg/kg/injection, schedule: Q04DX002 (ip), vehicle: saline) of the same compound?
Answer: Its survivor count is 3 of 3.

Question: What does the source list for `CC1CC(C)CC(C)C(O)/C(C#N)=C/C=C/CC(C2CCCC2C(=O)O)OC(=O)CC(O)C(C)C1` (stereo unspecified)?
Answer: survivor count (T/C endpoint: mean survival time, dose: 12.5 mg/kg/injection, schedule: Q01DX009 (ip), vehicle: Klucel (hydroxypropylcellulose) (HPC)): 3 of 6; survivor count (T/C endpoint: mean survival time, dose: 25.0 mg/kg/injection, schedule: Q01DX009 (ip), vehicle: Klucel (hydroxypropylcellulose) (HPC)): 2 of 6

Question: Which survivor count (T/C endpoint: mean survival time, dose: 100.0 mg/kg/injection, schedule: Q01DX005 (ip), vehicle: saline) does the source give for `CN(C)/C=N\c1ncnc2c1ccn2C1OC(CO)C(O)C1O` (stereo unspecified) here?
Answer: Its survivor count is 0 of 6.

Question: And the survivor count (T/C endpoint: mean survival time, dose: 200.0 mg/kg/injection, schedule: Q01DX005 (ip), vehicle: saline)?
Answer: Its survivor count is 0 of 6.

Question: For `COCC1=Nc2c([nH]cnc2=S)NN1`, which survivor count (T/C endpoint: mean survival time, dose: 100.0 mg/kg/injection, schedule: Q01DX001 (ip), vehicle: carboxymethylcellulose (CMC)) is on record?
Answer: Its survivor count is 0 of 6.

Question: And the survivor count (T/C endpoint: mean survival time, dose: 200.0 mg/kg/injection, schedule: Q01DX001 (ip), vehicle: carboxymethylcellulose (CMC))?
Answer: The survivor count was 0 of 6.

Question: What about the survivor count (T/C endpoint: mean survival time, dose: 400.0 mg/kg/injection, schedule: Q01DX001 (ip), vehicle: carboxymethylcellulose (CMC)) of the same compound?
Answer: The survivor count was 0 of 6.

Question: `CC(=O)OC1CCC2(C)C(CCC3(C)C2CCC2C4C5OC(=O)C4(CCC5(C)C)CCC23C)C1(C)C` (stereo unspecified) was tested. Which survivor count (T/C endpoint: mean survival time, dose: 25.0 mg/kg/injection, schedule: Q04DX002 (ip), vehicle: saline with Tween-80) did it give?
Answer: The survivor count was 3 of 3.

Question: Which results are given for `CCCCOC(=O)/C=C(\Br)C(=O)OCCCC`?
Answer: survivor count (T/C endpoint: mean survival time, dose: 50.0 mg/kg/injection, schedule: Q01DX009 (ip), vehicle: saline with Tween-80): 5 of 6; survivor count [3]: 6 of 6; survivor count [9]: 0 of 6 and 1 of 6

Question: Which results are given for `CC(C)(C)OC(=O)NCCCCC(NC(=O)CNC(=O)C(CSC(c1ccccc1)(c1ccccc1)c1ccccc1)NC(=O)OC(C)(C)C)C(=O)O` (stereo unspecified)?
Answer: survivor count (T/C endpoint: mean survival time, dose: 200.0 mg/kg/injection, schedule: Q04DX003 (ip), vehicle: saline sonified): 2 of 6; survivor count (T/C endpoint: mean survival time, dose: 400.0 mg/kg/injection, schedule: Q04DX003 (ip), vehicle: saline sonified): 0 of 6

Question: For `O=c1[nH]cc(Br)c2sccc12`, which survivor count [9] is on record?
Answer: The survivor count was 5 of 6.

Question: How did the survivor count [5] turn out when `O=C(c1ccccc1)C(Br)C(Br)c1ccccc1` (stereo unspecified) was run?
Answer: The survivor count was 6 of 6.

Question: Which results are given for `C[N+](C)(CC(=O)Nc1ccc(Cl)c(Cl)c1)Cc1ccc(Cl)c(Cl)c1`?
Answer: survivor count [5]: 0 of 6; survivor count [6]: 0 of 6; survivor count [7]: 0 of 6

Question: How did the survivor count [8] turn out when `CC(C)C(C=O)C(O)(C(F)(F)F)C(F)(F)Cl` (stereo unspecified) was run?
Answer: The survivor count was 0 of 6.

Question: What about the survivor count [2] of the same compound?
Answer: The survivor count was 0 of 6.
